Paper PMC8877947
Results are given in words; binding and its absence hold for the method and conditions named. Binding seen in cells or lysates may run through a third protein. Some entries that bind do so weakly or less than the wild type.

Legend:
[1] = biological target: T1, barrier-to-autointegration factor-like protein (BAF-L) (mouse (endogenous in testis)) (UniProt Q8BVR0); experiment: co-IP; testis lysate (50 mM Tris, 150 mM NaCl, 0.1-0.5% Tween 20, pH 7.5) precipitated with BAF-L antibody on protein A/G magnetic beads, 1 h at 4 °C; blots for histones H2A, H2B, H3, H4 and protamine 1
T1 sequence: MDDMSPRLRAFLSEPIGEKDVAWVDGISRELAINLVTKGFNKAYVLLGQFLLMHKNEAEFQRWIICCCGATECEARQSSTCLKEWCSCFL

[2] = biological target: T2, protamine 1 (mouse (endogenous in testis)) (UniProt P02319); experiment: co-IP; reverse: testis lysate (50 mM Tris, 150 mM NaCl, 0.1-0.5% Tween 20, pH 7.5) precipitated with histone H3, histone H4 or protamine 1 antibody on protein A/G magnetic beads, 1 h at 4 °C; blot for BAF-L
T2 sequence: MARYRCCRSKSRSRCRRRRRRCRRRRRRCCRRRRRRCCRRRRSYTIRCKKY

B1: protamine 1 (protein, UniProt P02319 1-51)
chain: T2 sequence
With B1 the binding [1] was “binds”.

B2: barrier-to-autointegration factor-like protein (BAF-L) (protein, UniProt Q8BVR0 1-90)
chain: T1 sequence
With B2 the binding [2] was “binds”.
